Here are results for 4 molecules from doi:10.1101/303180.

No constants are given. Whether binding was seen depends on the method and setting. Binding seen in cells or lysates may run through a third protein. Some entries that bind do so weakly or less than the wild type. Sequences can lack the tags named with a protein.

T1: HA-tagged Cdc23 (Cdc23/SpMcm10) (S. pombe) (UniProt O42709)
T1 sequence: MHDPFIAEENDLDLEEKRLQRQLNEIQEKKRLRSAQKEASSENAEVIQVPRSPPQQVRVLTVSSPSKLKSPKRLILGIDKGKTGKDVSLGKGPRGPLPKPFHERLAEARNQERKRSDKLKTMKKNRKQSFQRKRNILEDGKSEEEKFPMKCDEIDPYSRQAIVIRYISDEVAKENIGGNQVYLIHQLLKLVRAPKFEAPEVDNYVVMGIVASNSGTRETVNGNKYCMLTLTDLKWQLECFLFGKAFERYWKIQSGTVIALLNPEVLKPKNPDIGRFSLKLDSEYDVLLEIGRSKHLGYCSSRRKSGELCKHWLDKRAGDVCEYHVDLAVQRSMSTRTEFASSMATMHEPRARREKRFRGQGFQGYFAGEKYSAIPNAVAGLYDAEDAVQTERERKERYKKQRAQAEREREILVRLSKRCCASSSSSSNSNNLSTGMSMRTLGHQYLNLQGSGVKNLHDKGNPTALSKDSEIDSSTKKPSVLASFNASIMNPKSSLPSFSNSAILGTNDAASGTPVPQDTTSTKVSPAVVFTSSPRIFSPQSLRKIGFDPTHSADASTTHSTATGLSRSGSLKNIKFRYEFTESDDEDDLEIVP

B1: Swi1 (TAP-tagged) (protein, UniProt Q9UUM2 1-971)
chain: MELDEVIQGIVSAIGGFDYSDDEKVYVLGDEALACLKDLKRYLQVVDEKYKVWQIRSLLSSLQLVTNDICPILSDWDKDITNYRNWRIALACVELLVPLTWPLETEHETFRENVDVLYNLRQAQSNYKNSILSYKKGSVLSAILAVLLKPLSTPAESRTLRDKGIIRIVLLLFRNILQIDELKTKNETIISFAKAHILDLIVTLVSNLDEFEHFDVYILEIVYNLIRGCKPSALFSDASLTNSQTELNSLLLKESTQNRYLKRNAHTRHNRFGTMLSVQTEDRRFTIASQNIKTDGLDELDSHKRFRKRGTRRKHFDDINKSFFINTEAGTALRNFAVEFLEAGFNPLFQSLLKDLEREDPRVLPIHKMQLLYVQSFFLEFMRFSSKPKKTEEIYSNDYSFGLAASVFDQRALIMHNRLMVESFEMKQWSTFQASMLSMTQLLFTLRSMTLCSSEIYQRIADNLLSNIFYQEEILLLVYSALKHFKTQSFGYLDAITELTIVLLKELEKFSSAKQYLYVKKRRRNQKSVDSNVLESDEDEESSLINANAAVEDRLFDFGRYESRYCDNGCIDSFVLFLQCYQDLDSKQIHRAISFFYRIFVKQKCHVYLYRLDFLRVLDKMFNDHVYFSTTNSARQDFEQFFVYYMRKLSDALKDVPALFIELPFPKLTDTFYYLEYGKSPLFSIHGSRKGPLYETVPGLSHLEKVAAVVACLINENKSDLLDELKVQLNCLISERKLITLADENKYINEGGNDGERMGKNLKGDTDSFNTALLKDGKFRLLLELCGFEESDNNIDVQALWKLPNSVIIDELVEHAMLLRRFTDDPPTFEGTKPEDLLVRKQRGNVRLPSSSEGETSDEEIEFEADDPITFANRREALNKITDRKRKKMKTNETIIDHTTRKKKENHLRSAKYIVDSDDDSETDIAFFQSEAALREKNAQKASALFKRIDDLEMEGKLQEIEQLSENSSSD
B2: DNA Polymerase α catalytic subunit (Polα/Swi7), wild type (protein, UniProt P28040 1-1405)
chain: MRKRNAGIKPSQRFAELRALRQAGKTRASTYESKENEELYDNVSEEEYRKIVRQRLDEDDFVVDDNGAGYVDNGYDEWDQSHYSDEDDENEKGSSGRKRKKSKNVLAEPNQQIGAFFKANAIQPASRIANRKNNEKEDEFMAEILGSIDQDIPERLSTKKGNRSHTTSNAKRRSQKAASSISTTNVVSSDPKKYIPETVPSTPQPASSLPIPSSPPAALETEENVDSQPMELDEPELPVGSDAPIIDVEESIAMKPLMSHDQVDDTASLSKATISQQPLSPMTPLSSELDVSAFSEINSKIKNVDVPASSYSSPISKVSPSDVTEEDGSLFFFWMDYTEMYGSLCLFGKVYDKATKQYVSCFLKVDGIMRSLYFLPRPSSSSVSEDSIAAQTKDVYDEVANLLSKRGVKEWKSRVSKYKYAFELEDVPRTADYLEVIYSYSYPALPTDLTGSSFSHVFGTNTALFEQFVLSRRVMGPCWLKIQQPNFDAVKNASWCRVEIGCSSPQNISVSFEKNEITSKTPPMTVMSLAFRTLINKEQNKQEVVMISARIFENVDIEKGLPANDMPSYSFSLIRPLKQIFPNGFEKLARQHKSSIFCERSEVSLLNNFLNKVRTYDPDVYFGHDFEMCYSVLLSRLKERKIHNWSSIGRLRRSEWPRSFNRSSQQFVEKQIIAGRLMCDLSNDFGRSMIKAQSWSLSEIVLKELDIKRQDINQEKALQSWTDTAHGLLDYLVHCEIDTFFIAAVAFKIQMLQLSKNLTNIAGNSWARTLTGTRAERNEYILLHEFKKNGYIVPDKQQSIRRHAEAFGAEDGLQEESLGKKKDKYKGGLVFEPQKGLYETCILVMDFNSLYPSIIQEYNICFTTVDRSPSNSDSDDQIPDTPSASANQGIFPRLIANLVERRRQIKGLLKDNSATPTQRLQWDIQQQALKLTANSMYGCLGYTKSRFYARPLAVLITYKGREALMNTKELADQMGLQVIYGDTDSVMLNTNVTDKNHALRIGNEFKEKVNERYSKLEIDIDNVYQRMLLHAKKKYAALQLDSQGKPNLDVKGLDMKRREFCTLAKEASKFCLDQILSGELTETVIENIHSYLMDFSEKMRNGKFPANKFIIFNRLGKNPEDYPNGKTMPFVQVALKKKARGENVRVGDVIPFIIAGSDADGHPADRAYSPQEIMNTNSTLVIDYNYYLSHQILPPIERVIAPIEGTNRARLAECLGLDARKYYSHETSESSAFQRYESTLTDDQCFINVSPLLLKCPSCNATSFSLRSVKSLKETLYANTVECDCGYEYSDFTIILQFSSQLRDFINLYYEGILVCDDSSCGNRTRQMSVYGKRCCNKSCRGSVHFEYNDEQLYNQIKFLLKAVQTTTGATRNGIIRCNAINKNISRIMNKNAREFVDMGLIFSS
B3: DNA Polymerase α catalytic subunit, swi7-1 mutant (G1116E) (protein, UniProt P28040 1-1405)
chain: MRKRNAGIKPSQRFAELRALRQAGKTRASTYESKENEELYDNVSEEEYRKIVRQRLDEDDFVVDDNGAGYVDNGYDEWDQSHYSDEDDENEKGSSGRKRKKSKNVLAEPNQQIGAFFKANAIQPASRIANRKNNEKEDEFMAEILGSIDQDIPERLSTKKGNRSHTTSNAKRRSQKAASSISTTNVVSSDPKKYIPETVPSTPQPASSLPIPSSPPAALETEENVDSQPMELDEPELPVGSDAPIIDVEESIAMKPLMSHDQVDDTASLSKATISQQPLSPMTPLSSELDVSAFSEINSKIKNVDVPASSYSSPISKVSPSDVTEEDGSLFFFWMDYTEMYGSLCLFGKVYDKATKQYVSCFLKVDGIMRSLYFLPRPSSSSVSEDSIAAQTKDVYDEVANLLSKRGVKEWKSRVSKYKYAFELEDVPRTADYLEVIYSYSYPALPTDLTGSSFSHVFGTNTALFEQFVLSRRVMGPCWLKIQQPNFDAVKNASWCRVEIGCSSPQNISVSFEKNEITSKTPPMTVMSLAFRTLINKEQNKQEVVMISARIFENVDIEKGLPANDMPSYSFSLIRPLKQIFPNGFEKLARQHKSSIFCERSEVSLLNNFLNKVRTYDPDVYFGHDFEMCYSVLLSRLKERKIHNWSSIGRLRRSEWPRSFNRSSQQFVEKQIIAGRLMCDLSNDFGRSMIKAQSWSLSEIVLKELDIKRQDINQEKALQSWTDTAHGLLDYLVHCEIDTFFIAAVAFKIQMLQLSKNLTNIAGNSWARTLTGTRAERNEYILLHEFKKNGYIVPDKQQSIRRHAEAFGAEDGLQEESLGKKKDKYKGGLVFEPQKGLYETCILVMDFNSLYPSIIQEYNICFTTVDRSPSNSDSDDQIPDTPSASANQGIFPRLIANLVERRRQIKGLLKDNSATPTQRLQWDIQQQALKLTANSMYGCLGYTKSRFYARPLAVLITYKGREALMNTKELADQMGLQVIYGDTDSVMLNTNVTDKNHALRIGNEFKEKVNERYSKLEIDIDNVYQRMLLHAKKKYAALQLDSQGKPNLDVKGLDMKRREFCTLAKEASKFCLDQILSGELTETVIENIHSYLMDFSEKMRNGKFPANKFIIFNRLEKNPEDYPNGKTMPFVQVALKKKARGENVRVGDVIPFIIAGSDADGHPADRAYSPQEIMNTNSTLVIDYNYYLSHQILPPIERVIAPIEGTNRARLAECLGLDARKYYSHETSESSAFQRYESTLTDDQCFINVSPLLLKCPSCNATSFSLRSVKSLKETLYANTVECDCGYEYSDFTIILQFSSQLRDFINLYYEGILVCDDSSCGNRTRQMSVYGKRCCNKSCRGSVHFEYNDEQLYNQIKFLLKAVQTTTGATRNGIIRCNAINKNISRIMNKNAREFVDMGLIFSS
B4: Swi3 (myc-tagged) (protein, UniProt O14350 1-181)
chain: MSTAASDSGVEKLVEENKREEVKKNEEEKEFDLGLEENPDSVKKPRKRLAKFDEERLISENGIPKLRKMMRKVKLKGKGHEAKDLKQLLGMYHIWTHELYPRATFDDSISYLKTLGKHRSVKVRRRGWINEIAVENGSDSNASLFTGPSSNSLVNLTSGDPYVQDTADDAFVAQDNDTQLE

This assay concerns the target T1, HA-tagged Cdc23 (Cdc23/SpMcm10) (S. pombe). Briefly: co-IP.
As to B1, the binding entry was “binds”.
To B2 belongs “binds”.
To B3 belongs “binds”.
To B4 belongs “no binding”.
